Experimental data: PubChem BioAssay AID1224830 (NIAID, 2016)

Screen: 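Genes whose knock-down alters the TNF-alpha reporter response to LPS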 (primary screen)
Cell system: human THP-1 monocytic leukaemia cells, TNF dual-luciferase reporter clone, PMA-differentiated to macrophage-like cells
Reagents: siRNA pool against human genes, 50 nM
Time to read-out: LPS for 4 h, given about 3 days after siRNA transfection
Challenge: bacterial LPS (TLR4 ligand), 10 ng/ml
Detection: 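TNF firefly reporter luminescence divided by renilla, normalised to the plate median, then turned into a robust z-score for each replicate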
Reading the numbers: TNF reporter robust z-score: higher = stronger TNF reporter response to LPS
Hit rule: 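Each well counts as active if its z-score is over 2.8 or under -1.5; controls are left without a call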
This is a random part of about 18,000 reagents. About 2,900 of all reagents (16%) were called active. 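Calls are made per well; low scores hint the gene aids the LPS response, high scores that it dampens it.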 Unmarked entries are inactive. Repeated entries: four replicate wells of each siRNA pool. Reagent sequences are not shown.

target | TNF reporter robust z-score
GPRASP1 (G protein-coupled receptor associated sorting protein 1) | 1.22
GPRASP1 (G protein-coupled receptor associated sorting protein 1) | 1.13
GPRASP1 (G protein-coupled receptor associated sorting protein 1) | -0.58
GPRASP1 (G protein-coupled receptor associated sorting protein 1) | -0.94
RBM25 (RNA binding motif protein 25) | 0.58
RBM25 (RNA binding motif protein 25) | -0.12
RBM25 (RNA binding motif protein 25) | 0.6
RBM25 (RNA binding motif protein 25) | 0.82
HPSE2 (heparanase 2 (inactive)) | -1.56 (active)
HPSE2 (heparanase 2 (inactive)) | -0.99
HPSE2 (heparanase 2 (inactive)) | -1.29
HPSE2 (heparanase 2 (inactive)) | -0.16
TNNI2 (troponin I2, fast skeletal type) | -0.84
TNNI2 (troponin I2, fast skeletal type) | -1.02
TNNI2 (troponin I2, fast skeletal type) | -0.63
TNNI2 (troponin I2, fast skeletal type) | -0.21
DUSP6 (dual specificity phosphatase 6) | -1.46
DUSP6 (dual specificity phosphatase 6) | -1.37
DUSP6 (dual specificity phosphatase 6) | -2.12 (active)
DUSP6 (dual specificity phosphatase 6) | -1.69 (active)
DHRS2 (dehydrogenase/reductase 2) | 0
DHRS2 (dehydrogenase/reductase 2) | 0.18
DHRS2 (dehydrogenase/reductase 2) | 0.07
DHRS2 (dehydrogenase/reductase 2) | 0.56
MYL1 (myosin light chain 1) | -1.59 (active)
MYL1 (myosin light chain 1) | -1.45
MYL1 (myosin light chain 1) | -2.1 (active)
MYL1 (myosin light chain 1) | -1.72 (active)

7 entries from above, set out differently:
| target | TNF reporter robust z-score |
| --- | --- |
| GPRASP1 (G protein-coupled receptor associated sorting protein 1) | -0.94 |
| RBM25 (RNA binding motif protein 25) | 0.58 |
| RBM25 (RNA binding motif protein 25) | -0.12 |
| RBM25 (RNA binding motif protein 25) | 0.6 |
| RBM25 (RNA binding motif protein 25) | 0.82 |
| HPSE2 (heparanase 2 (inactive)) | -1.56 (active) |
| HPSE2 (heparanase 2 (inactive)) | -0.99 |

Additional entries follow.
target | TNF reporter robust z-score
GAGE4 (G antigen 4) | 0.04
GAGE4 (G antigen 4) | -0.17
GAGE4 (G antigen 4) | 0.37
SLC25A35 | -0.77
SLC25A35 | -0.8
SLC25A35 | -1.09
SLC25A35 | -0.82
ANO8 (anoctamin 8) | -0.99
ANO8 (anoctamin 8) | -0.66
ANO8 (anoctamin 8) | -0.03
ANO8 (anoctamin 8) | 0.28
RTN1 (reticulon 1) | 1.67
RTN1 (reticulon 1) | 0.44
RTN1 (reticulon 1) | -0.86
RTN1 (reticulon 1) | -0.43
MCMDC2 (minichromosome maintenance domain containing 2) | 0.06
MCMDC2 (minichromosome maintenance domain containing 2) | 2.96 (active)
MCMDC2 (minichromosome maintenance domain containing 2) | -0.37
MCMDC2 (minichromosome maintenance domain containing 2) | 0.74
